{"sequences": {"note": "Protein sequences, listed by entry. Tags and fused reporters are not part of them. Lines headed by an entry give the natural chain unless they say otherwise; changes in a name come on top.", "UniProt Q4L235": "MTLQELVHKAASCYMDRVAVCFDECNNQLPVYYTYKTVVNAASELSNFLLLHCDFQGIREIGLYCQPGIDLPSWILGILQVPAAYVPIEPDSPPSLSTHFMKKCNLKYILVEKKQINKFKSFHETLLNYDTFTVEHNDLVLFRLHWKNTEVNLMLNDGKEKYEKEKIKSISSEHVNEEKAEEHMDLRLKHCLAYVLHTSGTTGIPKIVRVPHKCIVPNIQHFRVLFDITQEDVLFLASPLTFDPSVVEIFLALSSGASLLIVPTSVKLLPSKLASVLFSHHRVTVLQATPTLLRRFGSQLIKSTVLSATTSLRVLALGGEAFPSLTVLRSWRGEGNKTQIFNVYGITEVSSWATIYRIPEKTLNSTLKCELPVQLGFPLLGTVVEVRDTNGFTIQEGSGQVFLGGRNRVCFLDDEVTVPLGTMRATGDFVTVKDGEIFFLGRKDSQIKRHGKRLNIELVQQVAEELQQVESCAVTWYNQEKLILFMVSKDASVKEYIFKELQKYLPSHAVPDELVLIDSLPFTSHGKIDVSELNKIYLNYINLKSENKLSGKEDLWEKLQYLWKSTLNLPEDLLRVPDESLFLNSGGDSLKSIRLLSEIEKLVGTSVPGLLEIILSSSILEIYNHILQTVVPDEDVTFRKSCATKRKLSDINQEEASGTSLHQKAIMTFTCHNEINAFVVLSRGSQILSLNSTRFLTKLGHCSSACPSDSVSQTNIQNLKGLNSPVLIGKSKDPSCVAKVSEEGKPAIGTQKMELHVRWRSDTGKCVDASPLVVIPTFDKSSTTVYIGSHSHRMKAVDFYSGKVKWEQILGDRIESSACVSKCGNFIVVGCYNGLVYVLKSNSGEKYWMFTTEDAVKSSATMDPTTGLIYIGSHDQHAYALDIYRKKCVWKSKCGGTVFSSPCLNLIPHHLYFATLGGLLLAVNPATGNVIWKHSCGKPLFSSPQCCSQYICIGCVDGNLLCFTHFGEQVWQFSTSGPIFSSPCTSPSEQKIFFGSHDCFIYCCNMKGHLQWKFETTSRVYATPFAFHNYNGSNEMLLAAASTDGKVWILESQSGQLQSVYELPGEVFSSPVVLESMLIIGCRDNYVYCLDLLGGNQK", "UniProt P09110": "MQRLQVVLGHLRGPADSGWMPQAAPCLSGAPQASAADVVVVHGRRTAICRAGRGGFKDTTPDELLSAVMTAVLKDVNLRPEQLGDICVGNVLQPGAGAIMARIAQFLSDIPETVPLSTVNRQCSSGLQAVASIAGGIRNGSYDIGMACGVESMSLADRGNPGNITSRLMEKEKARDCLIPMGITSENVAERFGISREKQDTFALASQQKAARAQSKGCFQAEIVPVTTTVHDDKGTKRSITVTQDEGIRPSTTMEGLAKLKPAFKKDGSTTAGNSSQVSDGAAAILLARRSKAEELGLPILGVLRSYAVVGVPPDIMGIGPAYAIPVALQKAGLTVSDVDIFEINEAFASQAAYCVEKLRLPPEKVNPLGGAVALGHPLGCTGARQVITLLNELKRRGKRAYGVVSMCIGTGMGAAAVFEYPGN", "UniProt Q9H7C9": "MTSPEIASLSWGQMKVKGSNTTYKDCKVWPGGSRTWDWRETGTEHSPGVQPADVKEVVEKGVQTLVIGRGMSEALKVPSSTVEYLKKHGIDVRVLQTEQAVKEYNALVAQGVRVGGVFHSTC", "UniProt Q9NPJ3": "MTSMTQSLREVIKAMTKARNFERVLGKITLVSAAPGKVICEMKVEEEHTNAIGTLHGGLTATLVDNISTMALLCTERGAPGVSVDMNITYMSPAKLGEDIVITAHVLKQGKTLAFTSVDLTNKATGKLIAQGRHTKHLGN", "UniProt Q13443": "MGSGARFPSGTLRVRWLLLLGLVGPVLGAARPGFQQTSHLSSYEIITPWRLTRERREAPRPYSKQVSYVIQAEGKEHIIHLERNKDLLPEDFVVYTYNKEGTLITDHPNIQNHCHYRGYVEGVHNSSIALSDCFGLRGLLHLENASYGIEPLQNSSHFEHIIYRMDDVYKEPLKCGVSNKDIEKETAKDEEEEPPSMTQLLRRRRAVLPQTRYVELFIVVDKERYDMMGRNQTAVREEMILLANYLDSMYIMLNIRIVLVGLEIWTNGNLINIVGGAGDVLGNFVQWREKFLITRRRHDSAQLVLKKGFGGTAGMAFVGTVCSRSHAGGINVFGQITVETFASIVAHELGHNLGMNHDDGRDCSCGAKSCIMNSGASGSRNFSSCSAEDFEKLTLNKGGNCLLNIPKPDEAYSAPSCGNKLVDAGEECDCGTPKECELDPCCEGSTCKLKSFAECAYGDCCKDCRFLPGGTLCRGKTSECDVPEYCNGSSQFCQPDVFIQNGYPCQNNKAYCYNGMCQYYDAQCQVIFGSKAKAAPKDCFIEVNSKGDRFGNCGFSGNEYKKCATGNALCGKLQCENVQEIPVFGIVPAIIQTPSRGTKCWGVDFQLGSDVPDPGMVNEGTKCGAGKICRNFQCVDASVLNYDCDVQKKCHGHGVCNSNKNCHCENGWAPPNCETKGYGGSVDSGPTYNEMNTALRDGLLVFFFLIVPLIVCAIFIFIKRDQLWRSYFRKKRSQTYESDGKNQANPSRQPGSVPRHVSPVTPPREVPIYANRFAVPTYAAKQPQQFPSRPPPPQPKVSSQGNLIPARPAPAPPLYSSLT", "UniProt P12814, whole entry, looked up": "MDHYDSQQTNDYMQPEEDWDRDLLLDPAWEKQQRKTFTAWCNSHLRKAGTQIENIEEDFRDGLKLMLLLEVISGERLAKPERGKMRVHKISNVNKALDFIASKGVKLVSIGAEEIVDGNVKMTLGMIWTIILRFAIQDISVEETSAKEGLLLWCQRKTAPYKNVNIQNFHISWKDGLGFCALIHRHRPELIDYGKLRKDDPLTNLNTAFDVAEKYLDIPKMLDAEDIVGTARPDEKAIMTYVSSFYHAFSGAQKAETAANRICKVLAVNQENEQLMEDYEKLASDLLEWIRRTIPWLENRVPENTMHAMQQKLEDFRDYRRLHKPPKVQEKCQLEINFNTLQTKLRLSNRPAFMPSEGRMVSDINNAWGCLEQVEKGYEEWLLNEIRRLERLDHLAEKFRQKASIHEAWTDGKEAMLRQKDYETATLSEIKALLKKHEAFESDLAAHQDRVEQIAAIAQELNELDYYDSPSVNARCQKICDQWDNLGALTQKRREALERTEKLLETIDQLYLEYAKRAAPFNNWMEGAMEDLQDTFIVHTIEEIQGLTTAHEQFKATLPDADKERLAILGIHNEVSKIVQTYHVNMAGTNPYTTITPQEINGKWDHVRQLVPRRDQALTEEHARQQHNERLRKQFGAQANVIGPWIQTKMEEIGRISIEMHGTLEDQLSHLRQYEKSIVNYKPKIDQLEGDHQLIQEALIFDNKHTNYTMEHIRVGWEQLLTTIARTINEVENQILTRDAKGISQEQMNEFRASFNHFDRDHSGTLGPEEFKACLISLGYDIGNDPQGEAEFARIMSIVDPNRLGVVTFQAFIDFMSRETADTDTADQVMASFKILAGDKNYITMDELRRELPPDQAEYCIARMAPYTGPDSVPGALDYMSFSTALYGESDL", "UniProt P28288": "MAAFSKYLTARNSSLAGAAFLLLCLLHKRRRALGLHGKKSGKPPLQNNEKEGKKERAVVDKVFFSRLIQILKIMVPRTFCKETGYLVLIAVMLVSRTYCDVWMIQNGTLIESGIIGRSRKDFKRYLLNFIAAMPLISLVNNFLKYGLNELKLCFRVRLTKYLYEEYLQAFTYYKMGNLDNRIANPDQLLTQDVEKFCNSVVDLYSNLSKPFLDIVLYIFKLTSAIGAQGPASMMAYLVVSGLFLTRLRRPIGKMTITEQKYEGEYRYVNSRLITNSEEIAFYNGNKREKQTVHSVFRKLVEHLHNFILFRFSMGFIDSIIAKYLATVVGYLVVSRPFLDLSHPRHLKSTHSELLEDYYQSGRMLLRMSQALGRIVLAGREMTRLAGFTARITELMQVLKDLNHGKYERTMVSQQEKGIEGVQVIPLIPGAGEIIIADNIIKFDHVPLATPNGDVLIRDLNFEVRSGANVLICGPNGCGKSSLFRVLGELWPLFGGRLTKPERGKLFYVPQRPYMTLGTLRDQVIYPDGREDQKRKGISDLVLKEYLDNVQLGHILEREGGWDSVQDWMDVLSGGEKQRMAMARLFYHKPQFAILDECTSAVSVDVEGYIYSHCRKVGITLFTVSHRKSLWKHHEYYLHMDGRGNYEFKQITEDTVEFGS", "UniProt Q5JTZ9, whole entry, looked up": "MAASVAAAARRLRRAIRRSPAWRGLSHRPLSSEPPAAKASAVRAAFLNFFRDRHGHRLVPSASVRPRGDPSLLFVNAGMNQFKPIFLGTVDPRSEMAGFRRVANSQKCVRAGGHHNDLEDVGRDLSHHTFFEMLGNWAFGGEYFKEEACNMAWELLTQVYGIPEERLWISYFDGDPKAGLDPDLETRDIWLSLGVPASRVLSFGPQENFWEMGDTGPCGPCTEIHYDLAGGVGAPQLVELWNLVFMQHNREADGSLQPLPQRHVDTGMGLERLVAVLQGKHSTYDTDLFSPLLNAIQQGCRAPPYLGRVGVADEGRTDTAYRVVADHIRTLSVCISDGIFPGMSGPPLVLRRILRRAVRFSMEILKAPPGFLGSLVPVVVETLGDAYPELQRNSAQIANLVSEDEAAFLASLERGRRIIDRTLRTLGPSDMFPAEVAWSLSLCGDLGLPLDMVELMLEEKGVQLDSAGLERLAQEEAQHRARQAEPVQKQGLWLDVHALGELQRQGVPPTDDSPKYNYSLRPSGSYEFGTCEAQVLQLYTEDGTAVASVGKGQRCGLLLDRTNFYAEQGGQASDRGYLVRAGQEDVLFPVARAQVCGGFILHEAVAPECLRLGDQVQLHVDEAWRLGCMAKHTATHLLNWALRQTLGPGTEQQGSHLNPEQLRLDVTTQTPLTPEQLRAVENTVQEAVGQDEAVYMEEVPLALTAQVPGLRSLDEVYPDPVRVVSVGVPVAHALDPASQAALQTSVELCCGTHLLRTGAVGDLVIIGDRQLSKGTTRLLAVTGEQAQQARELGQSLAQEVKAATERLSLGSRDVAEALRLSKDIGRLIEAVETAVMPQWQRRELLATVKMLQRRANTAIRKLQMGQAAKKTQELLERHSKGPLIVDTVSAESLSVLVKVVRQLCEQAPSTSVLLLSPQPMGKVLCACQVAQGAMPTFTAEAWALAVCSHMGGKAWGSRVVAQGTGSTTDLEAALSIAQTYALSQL", "UniProt P53396": "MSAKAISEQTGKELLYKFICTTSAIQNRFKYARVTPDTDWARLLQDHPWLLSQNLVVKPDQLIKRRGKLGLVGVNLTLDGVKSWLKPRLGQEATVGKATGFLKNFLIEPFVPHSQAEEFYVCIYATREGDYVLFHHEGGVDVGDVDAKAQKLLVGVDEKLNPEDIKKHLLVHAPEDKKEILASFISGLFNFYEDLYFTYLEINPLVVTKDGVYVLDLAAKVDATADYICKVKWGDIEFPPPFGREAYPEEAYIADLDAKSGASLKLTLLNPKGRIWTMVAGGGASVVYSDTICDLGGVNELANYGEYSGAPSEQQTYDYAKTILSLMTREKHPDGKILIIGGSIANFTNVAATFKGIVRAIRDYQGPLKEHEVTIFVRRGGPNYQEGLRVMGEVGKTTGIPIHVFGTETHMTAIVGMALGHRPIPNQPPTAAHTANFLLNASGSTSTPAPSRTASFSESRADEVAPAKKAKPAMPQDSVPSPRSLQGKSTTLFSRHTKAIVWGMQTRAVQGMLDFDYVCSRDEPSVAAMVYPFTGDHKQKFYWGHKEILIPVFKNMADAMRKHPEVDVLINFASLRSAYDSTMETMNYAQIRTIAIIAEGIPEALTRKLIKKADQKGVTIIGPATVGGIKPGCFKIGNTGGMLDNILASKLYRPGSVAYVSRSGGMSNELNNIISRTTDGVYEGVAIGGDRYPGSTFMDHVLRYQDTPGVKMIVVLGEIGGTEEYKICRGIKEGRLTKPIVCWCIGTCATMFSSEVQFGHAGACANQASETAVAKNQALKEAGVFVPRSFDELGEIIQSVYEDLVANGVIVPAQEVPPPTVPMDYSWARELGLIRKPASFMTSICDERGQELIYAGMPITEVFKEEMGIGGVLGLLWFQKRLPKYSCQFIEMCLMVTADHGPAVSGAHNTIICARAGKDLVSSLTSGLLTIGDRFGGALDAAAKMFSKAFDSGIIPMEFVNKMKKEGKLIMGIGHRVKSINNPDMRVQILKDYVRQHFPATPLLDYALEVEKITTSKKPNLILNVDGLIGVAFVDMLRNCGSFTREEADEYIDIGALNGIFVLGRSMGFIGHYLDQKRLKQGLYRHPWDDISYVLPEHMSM", "UniProt Q8NFV4": "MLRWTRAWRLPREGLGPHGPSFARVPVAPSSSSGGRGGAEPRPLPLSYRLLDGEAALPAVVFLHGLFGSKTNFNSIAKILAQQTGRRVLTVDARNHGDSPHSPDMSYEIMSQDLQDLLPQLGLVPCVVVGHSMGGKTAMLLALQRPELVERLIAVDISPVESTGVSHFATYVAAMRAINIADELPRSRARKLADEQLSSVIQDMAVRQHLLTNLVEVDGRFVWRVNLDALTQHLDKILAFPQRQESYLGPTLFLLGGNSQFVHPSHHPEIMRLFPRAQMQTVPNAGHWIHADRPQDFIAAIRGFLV"}, "source": "the supplement of paper PMC10849652", "note": "The list shows a part of the results.", "data": [{"compound": "C1=CC=C(C=C1)[C@H](COC2=CC3=C(C=C2)NC(=O)N3)NC(=O)C4=CC=CN(C4=O)CC5=CC(=C(C=C5)F)F", "assay": "log2 fold change, soluble protein after heating vs DMSO (PISA); higher = thermal stabilisation; K562 cells, 10 uM, 30 min; active = over 0.2 and 3.5 SD of the protein, either way, in both replicates (recomputed)", "in_short": "(§1)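 Values are thermal stability changes relative to control samples and are taken from duplicates. They are stated as log2 fold changes. Before quantification by TMTpro 16plex LC-MS/MS with equalised channel sums, K562 cells at 2×10^6 cells/mL were treated with 10 μM compound for 30 min, heated in aliquots for 3 min across 48°C-58°C, pooled, extracted in PBS with 0.5% NP-40 at 4°C, and centrifuged at 21,000xg for 90 min to give the soluble supernatant.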", "values": [{"target": "ABI2 (UniProt Q9NYB9)", "log2 fold change": "inactive: 0"}, {"target": "ACTR3 (UniProt P61158)", "log2 fold change": "inactive: 0.021"}, {"target": "AASDH (UniProt Q4L235)", "log2 fold change": "inactive: 0.047"}, {"target": "ABCE1 (UniProt H0Y990)", "log2 fold change": "inactive: -0.115"}, {"target": "AARSD1 isoform 3 (UniProt Q9BTE6)", "log2 fold change": "inactive: -0.053"}, {"target": "ABCF1 (UniProt Q8NE71)", "log2 fold change": "inactive: 0.03"}, {"target": "ACAA1 (UniProt P09110)", "log2 fold change": "inactive: -0.015"}, {"target": "AAMDC (UniProt Q9H7C9)", "log2 fold change": "inactive: 0.005"}, {"target": "ACOT13 (UniProt Q9NPJ3)", "log2 fold change": "inactive: 0.05"}, {"target": "ACTB, A0A2R8YEA7", "log2 fold change": "inactive: -0.012"}, {"target": "ACSF3 (UniProt Q4G176)", "log2 fold change": "inactive: 0.037"}, {"target": "AAMP (UniProt Q13685)", "log2 fold change": "inactive: -0.015"}, {"target": "ADAMTS5 (UniProt Q9UNA0)", "log2 fold change": "inactive: 0.149"}, {"target": "ACOT8 (UniProt O14734)", "log2 fold change": "inactive: -0.004"}, {"target": "ABCB6 (UniProt Q9NP58)", "log2 fold change": "inactive: 0.001"}, {"target": "ACYP1 (UniProt P07311)", "log2 fold change": "inactive: -0.039"}, {"target": "AARS (UniProt P49588)", "log2 fold change": "inactive: -0.011"}, {"target": "ADAM9 (UniProt Q13443)", "log2 fold change": "inactive: 0.004"}, {"target": "ABCE1 (UniProt P61221)", "log2 fold change": "inactive: 0.005"}, {"target": "ACTL8 (UniProt Q9H568)", "log2 fold change": "inactive: 0.017"}, {"target": "ACTN1 (UniProt P12814)", "log2 fold change": "inactive: 0.026"}, {"target": "ACAA2 (UniProt P42765)", "log2 fold change": "inactive: 0.035"}, {"target": "ADA (UniProt P00813)", "log2 fold change": "inactive: 0.008"}, {"target": "ACSS1 (UniProt Q9NUB1)", "log2 fold change": "inactive: -0.084"}, {"target": "ADAM17 (UniProt P78536)", "log2 fold change": "inactive: 0.014"}, {"target": "ABCD3 (UniProt P28288)", "log2 fold change": "inactive: -0.001"}, {"target": "AARS2 (UniProt Q5JTZ9)", "log2 fold change": "inactive: -0.047"}, {"target": "ABCC1 (UniProt P33527)", "log2 fold change": "inactive: 0.008"}, {"target": "ACLY (UniProt P53396)", "log2 fold change": "inactive: 0.056"}, {"target": "ACTL6A (UniProt O96019)", "log2 fold change": "inactive: -0.022"}, {"target": "ACADSB (UniProt P45954)", "log2 fold change": "inactive: -0.019"}, {"target": "ACTA1 (UniProt P68133)", "log2 fold change": "inactive: 0.016"}, {"target": "ABHD11 (UniProt Q8NFV4)", "log2 fold change": "inactive: -0.008"}, {"target": "ACACB (UniProt O00763)", "log2 fold change": "inactive: -0.044"}, {"target": "ACSM3 (UniProt Q53FZ2)", "log2 fold change": "inactive: -0.046"}, {"target": "ABRAXAS2 (UniProt Q15018)", "log2 fold change": "inactive: 0.017"}]}, {"compound": "CC1=C(SC2=C1C(=N[C@H](C3=NN=C(N32)C)CC(=O)N)C4=CC=C(C=C4)Cl)C", "assay": "log2 fold change, soluble protein after heating vs DMSO (PISA); higher = thermal stabilisation; K562 cells, 10 uM, 30 min; active = over 0.2 and 3.5 SD of the protein, either way, in both replicates (recomputed)", "in_short": "as §1", "values": [{"target": "ABI2 (UniProt Q9NYB9)", "log2 fold change": "inactive: 0.038"}, {"target": "ACTR3 (UniProt P61158)", "log2 fold change": "inactive: -0.022"}, {"target": "AASDH (UniProt Q4L235)", "log2 fold change": "inactive: 0.054"}, {"target": "ABCE1 (UniProt H0Y990)", "log2 fold change": "inactive: 0.11"}, {"target": "AARSD1 isoform 3 (UniProt Q9BTE6)", "log2 fold change": "inactive: -0.068"}, {"target": "ABCF1 (UniProt Q8NE71)", "log2 fold change": "inactive: -0.034"}, {"target": "ACAA1 (UniProt P09110)", "log2 fold change": "inactive: 0.04"}, {"target": "AAMDC (UniProt Q9H7C9)", "log2 fold change": "inactive: 0.163"}, {"target": "ACOT13 (UniProt Q9NPJ3)", "log2 fold change": "inactive: 0.047"}, {"target": "ACTB, A0A2R8YEA7", "log2 fold change": "inactive: 0.035"}, {"target": "ACSF3 (UniProt Q4G176)", "log2 fold change": "inactive: 0.086"}, {"target": "AAMP (UniProt Q13685)", "log2 fold change": "inactive: -0.013"}, {"target": "ADAMTS5 (UniProt Q9UNA0)", "log2 fold change": "inactive: 0.106"}, {"target": "ACOT8 (UniProt O14734)", "log2 fold change": "inactive: 0.071"}, {"target": "ABCB6 (UniProt Q9NP58)", "log2 fold change": "inactive: 0.003"}, {"target": "ACYP1 (UniProt P07311)", "log2 fold change": "inactive: 0.086"}, {"target": "AARS (UniProt P49588)", "log2 fold change": "inactive: 0.041"}, {"target": "ADAM9 (UniProt Q13443)", "log2 fold change": "inactive: 0.023"}, {"target": "ABCE1 (UniProt P61221)", "log2 fold change": "inactive: 0.006"}, {"target": "ACTL8 (UniProt Q9H568)", "log2 fold change": "inactive: -0.025"}, {"target": "ACTN1 (UniProt P12814)", "log2 fold change": "inactive: 0.037"}, {"target": "ACAA2 (UniProt P42765)", "log2 fold change": "inactive: 0.027"}, {"target": "ADA (UniProt P00813)", "log2 fold change": "inactive: 0.05"}, {"target": "ACSS1 (UniProt Q9NUB1)", "log2 fold change": "inactive: 0.067"}, {"target": "ADAM17 (UniProt P78536)", "log2 fold change": "inactive: 0.006"}, {"target": "ABCD3 (UniProt P28288)", "log2 fold change": "inactive: 0.052"}, {"target": "AARS2 (UniProt Q5JTZ9)", "log2 fold change": "inactive: 0.081"}, {"target": "ABCC1 (UniProt P33527)", "log2 fold change": "inactive: 0.029"}, {"target": "ACLY (UniProt P53396)", "log2 fold change": "inactive: 0.036"}, {"target": "ACTL6A (UniProt O96019)", "log2 fold change": "inactive: 0.032"}, {"target": "ACADSB (UniProt P45954)", "log2 fold change": "inactive: 0.096"}, {"target": "ACTA1 (UniProt P68133)", "log2 fold change": "inactive: 0.034"}, {"target": "ABHD11 (UniProt Q8NFV4)", "log2 fold change": "inactive: 0.127"}, {"target": "ACACB (UniProt O00763)", "log2 fold change": "inactive: -0.053"}, {"target": "ACSM3 (UniProt Q53FZ2)", "log2 fold change": "inactive: -0.051"}, {"target": "ABRAXAS2 (UniProt Q15018)", "log2 fold change": "inactive: 0.029"}]}]}
